No constants are given. Whether binding was seen depends on the method and setting. Binding seen in cells or lysates may run through a third protein. Some binding calls cover weakened binding; strength is not graded here. Where a sequence is shown, tags or fusion partners need not be part of it.

The text below walks through data of publication PMC4524894.

The assay addresses T1, OsPP2C6 fused to the N-terminal fragment of YFP (pVYNE) (rice) (UniProt Q0JLP9).
T1 sequence: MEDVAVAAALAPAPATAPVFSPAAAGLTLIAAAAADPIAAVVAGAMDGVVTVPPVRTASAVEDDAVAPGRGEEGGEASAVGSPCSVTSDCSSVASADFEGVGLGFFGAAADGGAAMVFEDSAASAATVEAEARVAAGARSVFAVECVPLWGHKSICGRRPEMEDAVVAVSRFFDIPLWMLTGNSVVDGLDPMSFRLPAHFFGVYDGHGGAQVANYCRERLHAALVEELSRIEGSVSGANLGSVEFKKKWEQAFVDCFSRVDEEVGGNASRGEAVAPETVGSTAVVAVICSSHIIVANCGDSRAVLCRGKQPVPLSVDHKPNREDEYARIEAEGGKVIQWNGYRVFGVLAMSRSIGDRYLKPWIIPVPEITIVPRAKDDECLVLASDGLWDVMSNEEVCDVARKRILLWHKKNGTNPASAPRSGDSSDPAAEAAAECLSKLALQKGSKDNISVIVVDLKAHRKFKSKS
Nature of the assay: split reporter; BiFC in rice protoplasts; pVYCE and pVYNE plasmids (15 ug each) by PEG-mediated transfection; reconstituted YFP fluorescence observed by microscopy at 16-24 h incubation.

B1: OsPYL/RCAR5 fused to the C-terminal fragment of YFP (pVYCE) (receptor, UniProt Q6I5C3 1-209)
chain: MVGLVGGGGWRVGDDAAGGGGGGAVAAGAAAAAEAEHMRRLHSHAPGEHQCSSALVKHIKAPVHLVWSLVRSFDQPQRYKPFVSRCVVRGGDLEIGSVREVNVKTGLPATTSTERLELLDDDEHILSVKFVGGDHRLRNYSSIVTVHPESIDGRPGTLVIESFVVDVPDGNTKDETCYFVEAVIKCNLTSLAEVSERLAVQSPTSPLEQ
B1: the binding result is “binds”.
